# Measurements from the supplement of paper PMC4371806.
# Over roughly 2,300 compounds, “plate-normalized OD600 growth (mean of duplicates)” has its median near 0.29; the lowest 2% begin near 0.22. The list shows a part of the results.
# Tested on: Escherichia coli BW25113
# Assay: plate-normalized OD600 growth (mean of duplicates) (OD600 (normalized)); higher = more growth (less inhibition)
# Conditions: 10 µM
# Procedure: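 E. coli BW25113 in LB (100 µl, 96-well, no shaking) was exposed to 10 µM of each compound from a ~30,000-member library and grown at 37°C for 24 h or 15°C for 48 h, in duplicate. Growth was read as OD600 and the duplicate ODs were normalized across screening plates to correct plate-to-plate variation. Hits were >3σ below the mean OD600 at 15°C and <2σ below the mean at 37°C.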
Compound,"plate-normalized OD600 growth (temperature: 15°C, 48 h)","plate-normalized OD600 growth (temperature: 37°C, 24 h)"
CC(C)C(=O)Nc1cccc2nsnc12,0.237,0.605
Nc1ccc(NC(=O)c2cccc(C(=O)Nc3ccc(N)cc3)c2)cc1,0.253,0.616
CCOC(=O)c1c(NC(=O)c2cc(S(N)(=O)=O)c(Cl)cc2Cl)sc2c1CCCC2,0.238,0.603
COC(=O)c1ccccc1NC(=O)CSc1ccccc1,0.248,0.629
Cc1ccc2nc(Cl)c(C=Nc3ccccn3)cc2c1,0.226,0.611
FC(F)(F)c1ccc(-n2cncn2)nc1,0.252,0.62
CCN(CC)CCOc1ccccc1OC,0.235,0.602
CC(=O)Nc1ncc(Cc2ccc(F)cc2)s1,0.252,0.629
CCCCOc1cccc(NC(=O)CCSc2nccn2C)c1,0.25,0.643
CCOC(=O)Cn1nnc(-c2ccc(S(C)(=O)=O)cc2)n1,0.229,0.632
N#CC1=C(N)Oc2n[nH]c(-c3cccs3)c2C12C(=O)Nc1ccc([N+](=O)[O-])cc12 (configuration not stated),0.265,0.618
C=CCc1cccc2cc(C(=O)Nc3ccccc3)c(=O)oc12,0.233,0.609
COc1ccc(C(C)=O)cc1CSC(=NS(=O)(=O)c1ccccc1)Nc1cccc(F)c1,0.235,0.61
CN1CCN(C2=CC(=O)OC23CCCCC3)CC1,0.247,0.626
CCCCCCCCNS(=O)(=O)c1ccc(N2C(=O)CCC2=O)cc1,0.25,0.613
c1ccc2c(c1)nc(N1CCCC1)n2CCN1CCCCC1,0.249,0.619
CCOC(=O)c1ccc2[nH]c(-c3ccccc3)cc(=O)c2c1,0.257,0.615
CC1=NN(c2cccc(S(N)(=O)=O)c2)C(=O)C1,0.225,0.612
C/C(=N/O)c1ccc2c(c1)C(C)(C)CCC2(C)C,0.256,0.629
COc1ccc(OCC(=O)N/N=C/c2ccc(I)cc2)cc1,0.251,0.617
O=C(Nc1ccc(F)c(Cl)c1)c1ccc(N2C(=O)/C(=C/c3ccccc3)N=C2c2ccccc2)cc1,0.238,0.653

Compound,"plate-normalized OD600 growth (temperature: 15°C, 48 h)","plate-normalized OD600 growth (temperature: 37°C, 24 h)"
CN(C)N=Nc1ccc(S(=O)(=O)NC(=O)Cc2ccccc2)cc1,0.24,0.612
COc1ccc(/C=N/NC(=O)c2nnn(-c3nonc3N)c2-c2ccccc2)cc1OC,0.241,0.615
O=C(Oc1ccc(-c2cnc3ccccc3n2)cc1)c1ccco1,0.235,0.628
CC(C)(C)c1cc(CCCSCCc2cc(C(C)(C)C)c(O)c(C(C)(C)C)c2)cc(C(C)(C)C)c1O,0.243,0.622
COCc1cc(C)nc2sc(C(=O)Nc3cc4c(cc3C#N)OCO4)c(N)c12,0.249,0.65
COc1ccc(S(=O)(=O)c2cc(NC(=O)c3ccc(Cl)cc3)c(C)c(C)c2O)cc1,0.24,0.618
O=C(NCCOc1ccc(Cl)cc1)C(=O)Nc1cccc(C(F)(F)F)c1,0.242,0.617
COc1ccc(Cl)cc1S(=O)(=O)NCCc1c(C)[nH]c2ccccc12,0.254,0.62
N#CC(C(=O)Nc1cccc(C(F)(F)F)c1)C(=S)Nc1ccccc1Cl (configuration not stated),0.254,0.644
CCOC(=O)C(C)Sc1nc(CC)c(C)cc1C#N (configuration not stated),0.248,0.613
N#C/C(=C\c1ccc(/C=C(\C#N)c2nn(-c3ccccc3)c(N)c2C#N)cc1)c1nn(-c2ccccc2)c(N)c1C#N,0.267,0.652
Cc1onc(-c2ccccc2Cl)c1C(=O)N1CCCN2C(=O)c3ccccc3C21 (configuration not stated),0.239,0.605
CCn1cc([N+](=O)[O-])nc1C,0.257,0.624
CCOC(=O)c1c(CN2CCN(c3ccccc3)CC2)n(-c2ccccc2)c2ccc(O)cc12,0.228,0.627
N#Cc1cc2c(nc1SCc1ccccc1F)CCC2,0.24,0.585
COc1cccc(NC(=O)C(C(F)(F)F)C(F)(F)F)c1,0.257,0.63
N#Cc1ccc([N+](=O)[O-])s1,0.248,0.627
COc1ccc(-c2cc(C(F)(F)F)n3ncc(C(=O)NCC45CC6CC(CC(C6)C4)C5)c3n2)cc1OC,0.274,0.635
O=[N+]([O-])c1cc(C(F)(F)F)ccc1S(=O)(=O)c1ccc(Cl)cc1,0.238,0.619
CCn1c(=N)n(CC(=O)c2cccs2)c2ccccc21,0.221,0.595
Cc1ccc(C(=O)c2ccccc2[N+](=O)[O-])cc1,0.243,0.613

Compound,"plate-normalized OD600 growth (temperature: 15°C, 48 h)","plate-normalized OD600 growth (temperature: 37°C, 24 h)"
CCN(CC)Cc1cc(NC2=NS(=O)(=O)c3ccccc32)ccc1OC(=O)c1ccccc1,0.253,0.64
O=C(Nc1ccccn1)c1ccc(Br)o1,0.23,0.631
CCCCOc1ccc(S(=O)(=O)Oc2c(Cl)cc(Cl)c3cccnc23)cc1,0.261,0.631
COc1c(C(C)=O)ccc2ccccc12,0.239,0.622
CCC1(O)C(=O)N(C)c2cnc(Nc3ccc(C(=O)NC4CCC(N5CCN(CC6CC6)CC5)CC4)cc3OC)nc2N1C(C)C (configuration not stated),0.23,0.612
CC(C)(C)c1ccc(C(CC(=O)O)NC(=O)c2ccc(F)cc2)cc1 (configuration not stated),0.239,0.617
NC(=O)c1c(NC(=O)c2cc3ccccc3o2)sc2c1CCCCC2,0.251,0.653
CCOC(=O)c1[nH]c(C)c(CNCc2ccccc2)c1C,0.238,0.627
COc1ccccc1NC(=S)NCCC(=O)O,0.247,0.616
Cc1sc(NC(=O)c2ccncc2)nc1-c1ccc(Cl)cc1,0.226,0.606
O=[N+]([O-])c1ccc(N2CCCCC2)nc1N1CCCCC1,0.257,0.607
COc1ccccc1N1CCN(S(=O)(=O)c2ccc(C(F)(F)F)cc2)CC1,0.26,0.603
O=C1OC(=O)C2C3C=CC(C3=C(c3ccccc3)c3ccccc3)C12 (configuration not stated),0.263,0.635
COc1ccc(C2=C(C(C)=O)C(C)=NC(=S)C2C#N)cc1 (configuration not stated),0.252,0.607
O=C(CNC(=O)C(c1ccccc1)c1ccccc1)N/N=C/c1ccccc1O,0.233,0.598
N#C/C(NCc1cccs1)=C(\C#N)NCc1c(F)cccc1Cl,0.228,0.615
O=C(Nc1ccc(S(=O)(=O)Nc2cccc(Cl)c2Cl)cc1)C1COc2ccccc2O1 (configuration not stated),0.262,0.62
CC(C)CSc1ncnc2scc(-c3ccccc3)c12,0.235,0.631
O=c1/c(=C/c2cc(Br)c(O)c(Br)c2)sc2nc3ccccc3n12,0.255,0.655

# Rewritten as tab-separated lines: entries from further up
Compound	plate-normalized OD600 growth (temperature: 15°C, 48 h)	plate-normalized OD600 growth (temperature: 37°C, 24 h)
CCC1(O)C(=O)N(C)c2cnc(Nc3ccc(C(=O)NC4CCC(N5CCN(CC6CC6)CC5)CC4)cc3OC)nc2N1C(C)C (configuration not stated)	0.23	0.612
CC(C)CSc1ncnc2scc(-c3ccccc3)c12	0.235	0.631
